This note sets out measurements from US20240207427A1 (priority 2021, published 2024).

This series is described as follows: general procedure: peptide synthesis; 2-chloro-trityl chloride or rink acid; cellulose solid support for library; HATU/DIPEA. The settings on record: conjugation step.

In turn, mp-Ala-Ser-Glu-PAB-Auristatin E returned a conjugation yield of 42.5%.

In the case of mp-D-Leu-Ala-Glu-PABC-MMAE, the “crude purity (method not given)” value is 78.0% and the “final purity (method not given)” value was found to be 98.6%. Further, the conjugation yield (over two steps) was determined as 72%. Where the note is “over two steps+purification”, this substance came in with a conjugation yield of 71%.
